No constants are given. Whether binding was seen depends on the method and setting. Binding seen in cells or lysates may run through a third protein. Some results given as binding are weak or reduced against the parent protein; the word gives no strength. Tags and fused reporters may be left off the sequences shown.
Tests used:
[1] = molecular target: T1, FLAG-Rad55 (S. cerevisiae) (UniProt P38953); experiment: co-IP
T1 sequence: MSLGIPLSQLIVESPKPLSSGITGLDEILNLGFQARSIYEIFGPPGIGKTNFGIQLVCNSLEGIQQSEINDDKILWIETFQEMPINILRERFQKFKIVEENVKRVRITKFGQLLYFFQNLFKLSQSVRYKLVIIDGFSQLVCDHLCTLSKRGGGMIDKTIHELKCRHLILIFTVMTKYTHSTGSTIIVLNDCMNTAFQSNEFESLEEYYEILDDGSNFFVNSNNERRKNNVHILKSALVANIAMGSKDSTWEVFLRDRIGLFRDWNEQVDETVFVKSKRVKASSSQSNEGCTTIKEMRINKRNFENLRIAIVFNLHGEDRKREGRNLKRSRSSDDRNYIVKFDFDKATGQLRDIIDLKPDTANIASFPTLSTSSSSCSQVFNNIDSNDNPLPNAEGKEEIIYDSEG

[2] = molecular target: T2, FLAG-Rad55-S404A (S. cerevisiae) (UniProt P38953); experiment: co-IP
T2 sequence: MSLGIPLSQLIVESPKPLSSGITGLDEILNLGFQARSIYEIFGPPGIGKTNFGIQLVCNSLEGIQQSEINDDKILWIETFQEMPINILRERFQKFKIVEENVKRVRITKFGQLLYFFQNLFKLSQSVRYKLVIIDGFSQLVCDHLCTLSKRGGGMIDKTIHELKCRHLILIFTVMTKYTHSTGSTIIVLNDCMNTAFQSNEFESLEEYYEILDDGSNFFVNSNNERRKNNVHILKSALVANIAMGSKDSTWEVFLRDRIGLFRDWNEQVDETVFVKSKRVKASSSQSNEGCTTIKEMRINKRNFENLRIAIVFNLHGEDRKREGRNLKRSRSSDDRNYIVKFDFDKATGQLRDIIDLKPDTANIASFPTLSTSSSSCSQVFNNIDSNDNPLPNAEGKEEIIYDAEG

Binder	binding [1]	binding [2]
Rad57-HA (protein, UniProt P25301 1-460) MPRALSIKFDNTYMDLYDELPESKLLYDEEFSYLLDAVRQNGVCVVDFLTLTPKELARLIQRSINEVFRFQQLLVHEYNEKYLEICEKNSISPDNGPECFTTADVAMDELLGGGIFTHGITEIFGESSTGKSQLLMQLALSVQLSEPAGGLGGKCVYITTEGDLPTQRLESMLSSRPAYEKLGITQSNIFTVSCNDLINQEHIINVQLPILLERSKGSIKLVIIDSISHHLRVELQNKSFRESQENKNYLDRMAEKLQILAHDYSLSVVVANQVGDKPLANSPVAHRTYVTDYDYQLGWLVGWKNSTILYRQMNSLLGASSNNDEILSDDEDYMLIERVMSTVNDRNYDFFSKKKPPIIENKTVERNSSSPISRQSKKRKFDYRVPNLGLTWSNHVSTRILLQKSFKASTIIQRGEAHLYKGGDSASFWQVKRTMKVVYSTFAKPGQIAYQITKRGIETA	binds	binds
Rtt107-VSV (protein, UniProt P38850 1-1070) MSTSLLFEQLNFLILVAAEAELPIAHSTRKLLMDNSCNNCQIYELYNENLKDVKTDKDWFMNKFGPQTVHFVISNTINFPFYKIVYFDLLIPVVSHTWVQDSVKTKRHLRTNMYSPNPFHLLRDCQVYISKSSFNKCEYILYSDLLHLLGGTLVNYISNRTTHVIVQSPQDPIIATVSKLTFGSFSSSSTNKHTEKPLREWKFVYPIWILYHFKMAKPLKGELATLCELDMQDTSEEQLFAKWEEVIGDKQTSSSQLTLHPNKTLFKNHHFAISPDLNFFTPLYWFLKGFIEDLDGKVTPLSFSDDLKSVYQAFPDIDCYIGHSANSPILEKTKSIKPEIHVGNVSWLFYMFALQKFTPVSQCKLIHQPFHAKLFTSKELTVAYTNYFGSQRFYIQRLVEILGGLSTPELTRKNTHLITKSTIGKKFKVAKKWSLDPQNAIIVTNHMWLEQCYMNNSKLNPKDSRFQNFKLDDNMGWNIGQIGMDHSSLPTPKNLSMVTYDTQSISEKPPPTNDQMDQINDNTNVLSKKDGTPISSFENSIDEKIDKLQKISGEVAVTHSGDLERSFVSRPSRASFPVVDSKKSNLQKKDSNSDISMETEVFCEGHEKREEKEFTKPITEYDAPKKQEIREQSRKKNDIDYKKEEEETELQVQLGQRTKREIKTSKKNEKEKETNECHIEVDQMTNEKQGEESTGKLISTEDVTSKKDTDKFSHLFEGLSDNDDHINDEKPAVNSKYTTPKTSQNITSGVDTPTTAQTQVFMPSSGNSRLAKTQAAKRLHTDIESLNEFQKNFKRKRIDSEEISLSQDVERSNNNKELATKAEKILARFNELPNYDLKAVCTGCFHDGFNEVDIEILNQLGIKIFDNIKETDKLNCIFAPKILRTEKFLKSLSFEPLKFALKPEFIIDLLKQIHSKKDKLSQININLFDYEINGINESIISKTKLPTKVFERANIRCINLVNDIPGGVDTIGSVLKAHGIEKINVLRSKKCTFEDIIPNDVSKQENGGIFKYVLIVTKASQVKKFTKLINDRDKNETILIVEWNWCVESIFHLNVDFTSKKNVLYQKKNN	binds	

— publication doi:10.1101/2024.02.05.579050
